Experimental data as given in PubChem BioAssay AID1671190 (National Center for Advancing Translational Sciences (NCATS), 2021).
Among all 580,000 compounds or so, about 6,100 (1.1%) were called active. Inconclusive means that the source gave no clear call. Such entries were picked first, then a sample of the others. Calls follow the shape of the dose curve; as a rule, active = well fitted inhibition curve with a large enough effect; inconclusive = small, poorly fitted or top-dose-only effect, or another doubt; inactive = no such curve, though single readings can be large or run the other way. A potency beside an inconclusive call is a rough fit, not a confirmed value.

Chains of the proteins cited; added tags and fusions are not shown. Lines headed by an entry give the natural chain unless they say otherwise; changes in a name come on top.
UniProt P18054: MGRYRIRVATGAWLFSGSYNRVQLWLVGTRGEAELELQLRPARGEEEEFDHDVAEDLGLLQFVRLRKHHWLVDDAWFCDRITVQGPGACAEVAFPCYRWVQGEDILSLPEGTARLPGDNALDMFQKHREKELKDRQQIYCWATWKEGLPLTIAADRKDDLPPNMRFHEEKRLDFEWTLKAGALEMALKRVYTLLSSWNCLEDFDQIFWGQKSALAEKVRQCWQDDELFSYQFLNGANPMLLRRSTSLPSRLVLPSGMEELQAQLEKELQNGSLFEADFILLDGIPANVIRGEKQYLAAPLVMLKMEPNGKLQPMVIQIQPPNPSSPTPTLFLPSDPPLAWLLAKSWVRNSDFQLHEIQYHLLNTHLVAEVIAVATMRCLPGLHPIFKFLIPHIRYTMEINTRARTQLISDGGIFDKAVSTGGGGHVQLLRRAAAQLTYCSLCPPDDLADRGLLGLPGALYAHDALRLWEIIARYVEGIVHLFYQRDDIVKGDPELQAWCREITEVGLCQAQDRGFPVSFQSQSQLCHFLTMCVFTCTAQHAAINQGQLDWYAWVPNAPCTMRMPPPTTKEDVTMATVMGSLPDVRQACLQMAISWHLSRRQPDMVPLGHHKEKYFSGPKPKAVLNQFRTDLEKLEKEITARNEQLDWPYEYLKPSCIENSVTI

Target: Polyunsaturated fatty acid lipoxygenase ALOX12 (Homo sapiens) (UniProt P18054)
Experiment: Primary qHTS assay for inhibitors of human arachidonate 12S-lipoxygenase (ALOX12): Round 2
Settings: purified 12hLO, xylenol orange hydroperoxide absorbance; activity change, negative = inhibition: at 108 µM (top of the series) unless noted
Summary of the method: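 Purified human 12hLO at 150 nM in 25 mM Hepes, 0.01% Triton X-100, pH 7.0, preincubated 15 min at room temperature with compound. Reaction started with 40 uM arachidonic acid, 30 min at room temperature. Hydroperoxide measured by Fe-xylenol orange, 573/405 nm absorbance ratio.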
% is scaled to controls: 0 for no effect and ±100 for the full control effect; potency is read from the fitted curve at half-maximal effect.

Compound | Potency | activity change, negative = inhibition
Cn1ccc2cc(NC(=O)Nc3cccnc3)ccc21 | inconclusive: 31.6 µM [inhibitor, single point] | –
NC(=O)C1=C(N)c2ccccc2C1c1ccccc1 (centres undefined) | inconclusive: 50.1 µM [inhibitor, partial curve, poor fit] | –
COc1ccc(OCC(=O)Nc2c(C(=O)N3CCN(c4ccccc4)CC3)oc3ccccc23)cc1 | inactive | –
Brc1ccc2ncnc(Nc3ccc(N4CCOCC4)cc3)c2c1 | inactive | –
Cc1ccc(C)c(C(O)c2ncc(-c3ccc(Cl)cc3)[nH]2)c1 (centres undefined) | inconclusive: 89.1 µM [inhibitor, single point] | –
Cc1ccccc1CN1CCN(C(=O)c2cc(-c3cccnc3)nc3ccccc23)CC1 | inactive | –
CC(C)c1noc(-c2cccn3c(CNC(=O)c4nccc5ccccc45)nnc23)n1 | inactive | –
O=C(O)c1ccc(Nc2nc(-c3ccccc3)cs2)cc1 | inconclusive: 44.7 µM [inhibitor, partial curve, poor fit] | –
CCCCN1CCCc2cc(CN(CCCN3CCOCC3)C(=O)Nc3ccc(CC)cc3)ccc21 | inconclusive: 44.7 µM [inhibitor, partial curve, poor fit] | –
CC(C)(C)NC(=O)/C(C#N)=C\c1ccc(OC(F)F)cc1 | – | inconclusive: -30.7% [inhibitor]
CCOC(=O)c1cc(S(=O)(=O)Nc2ccc3c(c2)OCCO3)[nH]n1 | active: 11.2 µM | –
CCn1cc(C(=O)NCCCC(N)=O)c2ccccc21 | inactive | –
CCOC(=O)c1c(-c2ccc(OC)c(OC)c2)csc1NC(=O)c1ccc(C)cc1 | inconclusive: 79.4 µM [inhibitor, partial curve, poor fit] | –
C/C(=N/Nc1cc(C)c2ccccc2n1)c1ccc([N+](=O)[O-])cc1 | inconclusive: 44.7 µM [inhibitor, partial curve, poor fit] | –
O=C(NC(c1ccc(Cl)cc1)c1cccnc1)C1CCN(CCOc2ccc(Cl)cc2Cl)CC1 (centres undefined) | inconclusive: 44.7 µM [inhibitor, partial curve, poor fit] | –
CCOC(=O)c1c(NC(=O)COC(=O)c2cc(OC)c(OC)cc2[N+](=O)[O-])sc(C)c1CC | inactive | –
O=C(Nc1ccc(F)cc1)C(c1ccccc1OC(F)(F)F)N1CCN(C(=O)c2ccco2)CC1 (centres undefined) | inactive | –
CC(=O)c1cccc(NC(=O)Cc2ccc(NC(=O)N3CCCCc4ccccc43)cc2)c1 | inconclusive: 126 µM [inhibitor, partial curve, poor fit] | –
O=C(COc1ccccc1)Nc1ccc(-c2nnc3n2CCCC3)cc1 | active: 28.2 µM | –

Two entries from above, as a markdown table.

| Compound | Potency | activity change, negative = inhibition |
| --- | --- | --- |
| CCOC(=O)c1c(NC(=O)COC(=O)c2cc(OC)c(OC)cc2[N+](=O)[O-])sc(C)c1CC | inactive | – |
| O=C(Nc1ccc(F)cc1)C(c1ccccc1OC(F)(F)F)N1CCN(C(=O)c2ccco2)CC1 (centres undefined) | inactive | – |
